# Some of the results follow.
# B1: CBP21 (Serratia marcescens), O83009 (protein)
# chain: MNKTSRTLLSLGLLSAAMFGVSQQANAHGYVESPASRAYQCKLQLNTQCGSVQAEPQSVEGLKGFPQAGPADGHIASADKSTFFELDQQTPTRWNKLNLKTGPNSFTWKLTARHSTTSWRYFITKPNWDASQPLTRASFDLTPFCQFNDGGAIPAAQVTHQCNIPADRSGSHVILAVWDIADTANAFYQAIDVNLSK
# Experiments:
# Assay in all cases: glycan array binding signal (z-score within array); higher = stronger binding
# Details in all cases: glycan notation: IUPAC condensed, linker removed; mutation: Y54A
# [1] = biological target: Fuc(a1-2)[GalNAc(b1-3)]Gal
# Procedure, shortened: (§1)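 The Consortium for Functional Glycomics database supplied 3228 glycan arrays, of which those lacking an available protein sequence were dropped. The binding signal, a within-array Z-score, was averaged across arrays of the same protein sequence and across linkers. Negative scores can be read as non-binding.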
# Fuc(a1-3)GlcNAc = biological target: Fuc(a1-3)GlcNAc
# Procedure, shortened: as §1
# [2] = biological target: Fuc(a1-3)[Gal(b1-4)]Glc6S
# Procedure, shortened: as §1
# [3] = biological target: Fuc(a1-3)[Gal(b1-4)]GlcNAc
# Procedure, shortened: as §1
# [4] = biological target: Fuc(a1-3)[Gal(b1-4)]GlcNAc(b1-2)Man
# Procedure, shortened: as §1
# [5] = biological target: Fuc(a1-3)[Gal(b1-4)]GlcNAc(b1-2)Man(a1-3)[Fuc(a1-3)[Gal(b1-4)]GlcNAc(b1-2)Man(a1-6)]Man(b1-4)GlcNAc(b1-4)GlcNAc
# Procedure, shortened: as §1
# [6] = biological target: Fuc(a1-3)[Gal(b1-4)]GlcNAc(b1-2)Man(a1-3)[Fuc(a1-3)[Gal(b1-4)]GlcNAc(b1-2)Man(a1-6)]Man(b1-4)GlcNAc(b1-4)[Fuc(a1-6)]GlcNAc
# Procedure, shortened: as §1
# [7] = biological target: Fuc(a1-3)[Gal(b1-4)]GlcNAc(b1-3)Gal(b1-3)[Fuc(a1-4)]GlcNAc
# Procedure, shortened: as §1
# [8] = biological target: Fuc(a1-3)[Gal(b1-4)]GlcNAc(b1-3)Gal(b1-4)[Fuc(a1-3)]GlcNAc
# Procedure, shortened: as §1
# [9] = biological target: Fuc(a1-3)[Gal(b1-4)]GlcNAc(b1-3)Gal(b1-4)[Fuc(a1-3)]GlcNAc(b1-3)Gal(b1-4)[Fuc(a1-3)]GlcNAc
# Procedure, shortened: as §1
# [10] = biological target: Fuc(a1-3)[Gal(b1-4)]GlcNAc(b1-3)GalNAc
# Procedure, shortened: as §1
# [11] = biological target: Fuc(a1-3)[Gal(b1-4)]GlcNAc(b1-6)GalNAc
# Procedure, shortened: as §1
# [12] = biological target: Fuc(a1-3)[Gal(b1-4)]GlcNAc(b1-6)[Gal(b1-3)GlcNAc(b1-3)]Gal(b1-4)Glc
# Procedure, shortened: as §1
# [13] = biological target: Fuc(a1-3)[Gal(b1-4)]GlcNAc6S
# Procedure, shortened: as §1
# [14] = biological target: Fuc(a1-3)[Gal3S(b1-4)]Glc
# Procedure, shortened: as §1
# [15] = biological target: Fuc(a1-3)[Gal3S(b1-4)]GlcNAc
# Procedure, shortened: as §1
# [16] = biological target: Fuc(a1-3)[Gal3S(b1-4)]GlcNAc6S
# Procedure, shortened: as §1
# [17] = biological target: Fuc(a1-3)[GalNAc(b1-4)]GlcNAc
# Procedure, shortened: as §1
# [18] = biological target: Fuc(a1-3)[GalNAc(b1-4)]GlcNAc6S
# Procedure, shortened: as §1
# Fuc(a1-4)GlcNAc = biological target: Fuc(a1-4)GlcNAc
# Procedure, shortened: as §1
# Fuc(b1-3)GlcNAc = biological target: Fuc(b1-3)GlcNAc
# Procedure, shortened: as §1
# Gal(a1-2)Gal = biological target: Gal(a1-2)Gal
# Procedure, shortened: as §1
# Gal(a1-3)Gal = biological target: Gal(a1-3)Gal
# Procedure, shortened: as §1
# Gal(a1-3)Gal(b1-3)GlcNAc = biological target: Gal(a1-3)Gal(b1-3)GlcNAc
# Procedure, shortened: as §1
# [19] = biological target: Gal(a1-3)Gal(b1-3)GlcNAc(b1-2)Man
# Procedure, shortened: as §1
# [20] = biological target: Gal(a1-3)Gal(b1-3)GlcNAc(b1-2)Man(a1-3)[Gal(a1-3)Gal(b1-3)GlcNAc(b1-2)Man(a1-6)]Man(b1-4)GlcNAc(b1-4)GlcNAc
# Procedure, shortened: as §1
# [21] = biological target: Gal(a1-3)Gal(b1-3)GlcNAc(b1-3)GalNAc
# Procedure, shortened: as §1
# [22] = biological target: Gal(a1-3)Gal(b1-3)GlcNAc(b1-6)GalNAc
# Procedure, shortened: as §1
# [23] = biological target: Gal(a1-3)Gal(b1-3)[Fuc(a1-4)]GlcNAc(b1-2)Man(a1-3)[Gal(a1-3)Gal(b1-3)[Fuc(a1-4)]GlcNAc(b1-2)Man(a1-6)]Man(b1-4)GlcNAc(b1-4)GlcNAc
# Procedure, shortened: as §1
# Gal(a1-3)Gal(b1-4)Glc = biological target: Gal(a1-3)Gal(b1-4)Glc
# Procedure, shortened: as §1
# Gal(a1-3)Gal(b1-4)GlcNAc = biological target: Gal(a1-3)Gal(b1-4)GlcNAc
# Procedure, shortened: as §1
# [24] = biological target: Gal(a1-3)Gal(b1-4)GlcNAc(b1-2)Man
# Procedure, shortened: as §1
# [25] = biological target: Gal(a1-3)Gal(b1-4)GlcNAc(b1-2)Man(a1-3)[Gal(a1-3)Gal(b1-4)GlcNAc(b1-2)Man(a1-6)]Man(b1-4)GlcNAc(b1-4)GlcNAc
# Procedure, shortened: as §1
# [26] = biological target: Gal(a1-3)Gal(b1-4)GlcNAc(b1-3)GalNAc
# Procedure, shortened: as §1
# [27] = biological target: Gal(a1-3)Gal(b1-4)GlcNAc(b1-6)GalNAc
# Procedure, shortened: as §1
# [28] = biological target: Gal(a1-3)Gal(b1-4)[Fuc(a1-3)]GlcNAc
# Procedure, shortened: as §1
# [29] = biological target: Gal(a1-3)Gal(b1-4)[Fuc(a1-3)]GlcNAc(b1-2)Man(a1-3)[Gal(a1-3)Gal(b1-4)[Fuc(a1-3)]GlcNAc(b1-2)Man(a1-6)]Man(b1-4)GlcNAc(b1-4)GlcNAc
# Procedure, shortened: as §1
# Gal(a1-3)GalNAc = biological target: Gal(a1-3)GalNAc
# Procedure, shortened: as §1
# [30] = biological target: Gal(a1-3)[Gal(a1-4)]Gal(b1-4)GlcNAc
# Procedure, shortened: as §1
# [31] = biological target: Gal(a1-4)Gal(b1-3)GlcNAc(b1-2)Man(a1-3)[Gal(a1-4)Gal(b1-3)GlcNAc(b1-2)Man(a1-6)]Man(b1-4)GlcNAc(b1-4)GlcNAc
# Procedure, shortened: as §1
# Gal(a1-4)Gal(b1-4)Glc = biological target: Gal(a1-4)Gal(b1-4)Glc
# Procedure, shortened: as §1
# Gal(a1-4)Gal(b1-4)GlcNAc = biological target: Gal(a1-4)Gal(b1-4)GlcNAc
# Procedure, shortened: as §1
# [32] = biological target: Gal(a1-4)Gal(b1-4)GlcNAc(b1-2)Man(a1-3)[Gal(a1-4)Gal(b1-4)GlcNAc(b1-2)Man(a1-6)]Man(b1-4)GlcNAc(b1-4)GlcNAc
# Procedure, shortened: as §1
# [33] = biological target: Gal(a1-4)Gal(b1-4)GlcNAc(b1-3)Gal(b1-4)Glc
# Procedure, shortened: as §1
# Gal(a1-4)GlcNAc = biological target: Gal(a1-4)GlcNAc
# Procedure, shortened: as §1
binder,measurement,setting,value
B1,glycan array binding signal (z-score),[1],0.085
same,glycan array binding signal (z-score),Fuc(a1-3)GlcNAc,-0.555
same,glycan array binding signal (z-score),[2],0.953
same,glycan array binding signal (z-score),[3],-0.306
same,glycan array binding signal (z-score),[4],0.032
same,glycan array binding signal (z-score),[5],0.281
same,glycan array binding signal (z-score),[6],-0.205
same,glycan array binding signal (z-score),[7],-0.81
same,glycan array binding signal (z-score),[8],-0.072
same,glycan array binding signal (z-score),[9],-0.249
same,glycan array binding signal (z-score),[10],0.004
same,glycan array binding signal (z-score),[11],-0.521
same,glycan array binding signal (z-score),[12],-0.745
same,glycan array binding signal (z-score),[13],-0.341
same,glycan array binding signal (z-score),[14],0.128
same,glycan array binding signal (z-score),[15],0.264
same,glycan array binding signal (z-score),[16],1.17
same,glycan array binding signal (z-score),[17],-0.176
same,glycan array binding signal (z-score),[18],-0.44
same,glycan array binding signal (z-score),Fuc(a1-4)GlcNAc,0.112
same,glycan array binding signal (z-score),Fuc(b1-3)GlcNAc,-0.276
same,glycan array binding signal (z-score),Gal(a1-2)Gal,1.55
same,glycan array binding signal (z-score),Gal(a1-3)Gal,-0.452
same,glycan array binding signal (z-score),Gal(a1-3)Gal(b1-3)GlcNAc,-0.388
same,glycan array binding signal (z-score),[19],-0.297
same,glycan array binding signal (z-score),[20],0.038
same,glycan array binding signal (z-score),[21],-0.22
same,glycan array binding signal (z-score),[22],-0.706
same,glycan array binding signal (z-score),[23],-0.191
same,glycan array binding signal (z-score),Gal(a1-3)Gal(b1-4)Glc,-0.711
same,glycan array binding signal (z-score),Gal(a1-3)Gal(b1-4)GlcNAc,0.294
same,glycan array binding signal (z-score),[24],0.324
same,glycan array binding signal (z-score),[25],-0.395
same,glycan array binding signal (z-score),[26],-0.108
same,glycan array binding signal (z-score),[27],1.24
same,glycan array binding signal (z-score),[28],-0.883
same,glycan array binding signal (z-score),[29],-0.844
same,glycan array binding signal (z-score),Gal(a1-3)GalNAc,-0.365
same,glycan array binding signal (z-score),[30],-0.441
same,glycan array binding signal (z-score),[31],-0.679
same,glycan array binding signal (z-score),Gal(a1-4)Gal(b1-4)Glc,0.243
same,glycan array binding signal (z-score),Gal(a1-4)Gal(b1-4)GlcNAc,0.063
same,glycan array binding signal (z-score),[32],-0.585
same,glycan array binding signal (z-score),[33],-0.655
same,glycan array binding signal (z-score),Gal(a1-4)GlcNAc,1.9

# Rewritten as tab-separated lines: part of the list above.
binder	measurement	setting	value
B1	glycan array binding signal (z-score)	Gal(a1-2)Gal	1.55
same	glycan array binding signal (z-score)	Gal(a1-3)Gal	-0.452

# From the supplement of paper PMC8728848
